Data from the supplement of paper PMC8728848.
The other results are listed elsewhere or left out.

What was measured:
Test in all cases: glycan array binding signal (z-score within array); higher = stronger binding
Details in all cases: glycan notation: IUPAC condensed, linker removed
[1] = molecular target: Fuc(a1-3)[Gal(b1-4)]GlcNAc(b1-3)Gal(b1-3)[Fuc(a1-4)]GlcNAc
How it was run: (§1)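 Glycan array binding is given as a within-array Z-score, which can be read as non-binding when negative. The arrays, 3228 of them, came from the Consortium for Functional Glycomics database and were retained only where the protein sequence was available. Z-scores were averaged across arrays of the same protein sequence at different concentrations or buffers and across linkers.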

[2] = molecular target: Fuc(a1-3)[Gal(b1-4)]GlcNAc(b1-3)Gal(b1-4)[Fuc(a1-3)]GlcNAc
How it was run: as §1

[3] = molecular target: Fuc(a1-3)[Gal(b1-4)]GlcNAc(b1-3)Gal(b1-4)[Fuc(a1-3)]GlcNAc(b1-3)Gal(b1-4)[Fuc(a1-3)]GlcNAc
How it was run: as §1

[4] = molecular target: Fuc(a1-3)[Gal(b1-4)]GlcNAc(b1-3)GalNAc
How it was run: as §1

[5] = molecular target: Fuc(a1-3)[Gal(b1-4)]GlcNAc(b1-6)GalNAc
How it was run: as §1

[6] = molecular target: Fuc(a1-3)[Gal(b1-4)]GlcNAc(b1-6)[Gal(b1-3)GlcNAc(b1-3)]Gal(b1-4)Glc
How it was run: as §1

[7] = molecular target: Fuc(a1-3)[Gal(b1-4)]GlcNAc6S
How it was run: as §1

[8] = molecular target: Fuc(a1-3)[Gal3S(b1-4)]Glc
How it was run: as §1

[9] = molecular target: Fuc(a1-3)[Gal3S(b1-4)]GlcNAc
How it was run: as §1

[10] = molecular target: Fuc(a1-3)[Gal3S(b1-4)]GlcNAc6S
How it was run: as §1

[11] = molecular target: Fuc(a1-3)[GalNAc(b1-4)]GlcNAc
How it was run: as §1

[12] = molecular target: Fuc(a1-3)[GalNAc(b1-4)]GlcNAc6S
How it was run: as §1

Fuc(a1-4)GlcNAc = molecular target: Fuc(a1-4)GlcNAc
How it was run: as §1

Fuc(b1-3)GlcNAc = molecular target: Fuc(b1-3)GlcNAc
How it was run: as §1

Gal(a1-2)Gal = molecular target: Gal(a1-2)Gal
How it was run: as §1

Gal(a1-3)Gal = molecular target: Gal(a1-3)Gal
How it was run: as §1

Gal(a1-3)Gal(b1-3)GlcNAc = molecular target: Gal(a1-3)Gal(b1-3)GlcNAc
How it was run: as §1

[13] = molecular target: Gal(a1-3)Gal(b1-3)GlcNAc(b1-2)Man
How it was run: as §1

[14] = molecular target: Gal(a1-3)Gal(b1-3)GlcNAc(b1-2)Man(a1-3)[Gal(a1-3)Gal(b1-3)GlcNAc(b1-2)Man(a1-6)]Man(b1-4)GlcNAc(b1-4)GlcNAc
How it was run: as §1

[15] = molecular target: Gal(a1-3)Gal(b1-3)GlcNAc(b1-3)GalNAc
How it was run: as §1

[16] = molecular target: Gal(a1-3)Gal(b1-3)GlcNAc(b1-6)GalNAc
How it was run: as §1

[17] = molecular target: Gal(a1-3)Gal(b1-3)[Fuc(a1-4)]GlcNAc(b1-2)Man(a1-3)[Gal(a1-3)Gal(b1-3)[Fuc(a1-4)]GlcNAc(b1-2)Man(a1-6)]Man(b1-4)GlcNAc(b1-4)GlcNAc
How it was run: as §1

Gal(a1-3)Gal(b1-4)Glc = molecular target: Gal(a1-3)Gal(b1-4)Glc
How it was run: as §1

Gal(a1-3)Gal(b1-4)GlcNAc = molecular target: Gal(a1-3)Gal(b1-4)GlcNAc
How it was run: as §1

[18] = molecular target: Gal(a1-3)Gal(b1-4)GlcNAc(b1-2)Man
How it was run: as §1

[19] = molecular target: Gal(a1-3)Gal(b1-4)GlcNAc(b1-2)Man(a1-3)[Gal(a1-3)Gal(b1-4)GlcNAc(b1-2)Man(a1-6)]Man(b1-4)GlcNAc(b1-4)GlcNAc
How it was run: as §1

[20] = molecular target: Gal(a1-3)Gal(b1-4)GlcNAc(b1-3)GalNAc
How it was run: as §1

[21] = molecular target: Gal(a1-3)Gal(b1-4)GlcNAc(b1-6)GalNAc
How it was run: as §1

[22] = molecular target: Gal(a1-3)Gal(b1-4)[Fuc(a1-3)]GlcNAc
How it was run: as §1

[23] = molecular target: Gal(a1-3)Gal(b1-4)[Fuc(a1-3)]GlcNAc(b1-2)Man(a1-3)[Gal(a1-3)Gal(b1-4)[Fuc(a1-3)]GlcNAc(b1-2)Man(a1-6)]Man(b1-4)GlcNAc(b1-4)GlcNAc
How it was run: as §1

Gal(a1-3)GalNAc = molecular target: Gal(a1-3)GalNAc
How it was run: as §1

[24] = molecular target: Gal(a1-3)[Gal(a1-4)]Gal(b1-4)GlcNAc
How it was run: as §1

[25] = molecular target: Gal(a1-4)Gal(b1-3)GlcNAc(b1-2)Man(a1-3)[Gal(a1-4)Gal(b1-3)GlcNAc(b1-2)Man(a1-6)]Man(b1-4)GlcNAc(b1-4)GlcNAc
How it was run: as §1

Gal(a1-4)Gal(b1-4)Glc = molecular target: Gal(a1-4)Gal(b1-4)Glc
How it was run: as §1

Gal(a1-4)Gal(b1-4)GlcNAc = molecular target: Gal(a1-4)Gal(b1-4)GlcNAc
How it was run: as §1

[26] = molecular target: Gal(a1-4)Gal(b1-4)GlcNAc(b1-2)Man(a1-3)[Gal(a1-4)Gal(b1-4)GlcNAc(b1-2)Man(a1-6)]Man(b1-4)GlcNAc(b1-4)GlcNAc
How it was run: as §1

[27] = molecular target: Gal(a1-4)Gal(b1-4)GlcNAc(b1-3)Gal(b1-4)Glc
How it was run: as §1

Gal(a1-4)GlcNAc = molecular target: Gal(a1-4)GlcNAc
How it was run: as §1

B1: SabA (Helicobacter pylori) (protein)
chain: MGSSHHHHHHSSGLVPRGSHMENLYFQGEDNGFFVSAGYQIGEAVQMVKNTGELKNLNEKYEQLSQYLNQVASLKQSIQNANNIELVNSSLNYLKSFTNNNYNSTTQSPIFNAVQAVITSVLGFWSLYAGNYFTFFVGKKVGDSGQPASVQGNPPFKTIIENCSGIENCAMDQTTYDKMKKLAEDLQAAQTNSATKGNNLCALSGCAATDSTSNPPNSTVSNALNLAQQLMDLIANTKTAMMWKNIVISGVSNTSGAITSTNYPTQYAVFNNIKAMIPILQQAVTLSQSNHTLSASLQAQATGSQTNPKFAKDIYTFAQNQKQVISYAQDIFNLFNSIPAEQYKYLEKAYLKIPNAGSTPTNPYRQVVNLNQEVQTIKNNVSYYGNRVDAALSVARDVYNLKSNQAEIVTAYNDAKTLSEEISKLPHNQVNTKDIVTLPYDKNAPAAGQSNYQINPEQQSNLNQALAAMSNNPFKKVGMISSQNNNGA
glycan array binding signal (z-score) [1]: -0.032 | glycan array binding signal (z-score) [2]: 1.26 | glycan array binding signal (z-score) [3]: -0.77 | glycan array binding signal (z-score) [4]: 0.654 | glycan array binding signal (z-score) [5]: 1.95 | glycan array binding signal (z-score) [6]: -0.702 | glycan array binding signal (z-score) [7]: 0.599 | glycan array binding signal (z-score) [8]: -0.249 | glycan array binding signal (z-score) [9]: -0.614 | glycan array binding signal (z-score) [10]: -0.083 | glycan array binding signal (z-score) [11]: 1.14 | glycan array binding signal (z-score) [12]: 0.226 | glycan array binding signal (z-score) (Fuc(a1-4)GlcNAc): 2.89 | glycan array binding signal (z-score) (Fuc(b1-3)GlcNAc): 0.437 | glycan array binding signal (z-score) (Gal(a1-2)Gal): -0.173 | glycan array binding signal (z-score) (Gal(a1-3)Gal): 0.291 | glycan array binding signal (z-score) (Gal(a1-3)Gal(b1-3)GlcNAc): -0.088 | glycan array binding signal (z-score) [13]: -0.169 | glycan array binding signal (z-score) [14]: 0.775 | glycan array binding signal (z-score) [15]: -0.328 | glycan array binding signal (z-score) [16]: -0.66 | glycan array binding signal (z-score) [17]: 0.26 | glycan array binding signal (z-score) (Gal(a1-3)Gal(b1-4)Glc): 0.427 | glycan array binding signal (z-score) (Gal(a1-3)Gal(b1-4)GlcNAc): 0.561 | glycan array binding signal (z-score) [18]: -1.32 | glycan array binding signal (z-score) [19]: 0.752 | glycan array binding signal (z-score) [20]: -0.125 | glycan array binding signal (z-score) [21]: -0.362 | glycan array binding signal (z-score) [22]: 0.132 | glycan array binding signal (z-score) [23]: 0.582 | glycan array binding signal (z-score) (Gal(a1-3)GalNAc): -0.22 | glycan array binding signal (z-score) [24]: 0.53 | glycan array binding signal (z-score) [25]: 0.082 | glycan array binding signal (z-score) (Gal(a1-4)Gal(b1-4)Glc): 0.21 | glycan array binding signal (z-score) (Gal(a1-4)Gal(b1-4)GlcNAc): -0.05 | glycan array binding signal (z-score) [26]: 0.505 | glycan array binding signal (z-score) [27]: -0.081 | glycan array binding signal (z-score) (Gal(a1-4)GlcNAc): -0.533
